± gives the standard deviation. This is a selection; strong and weak results do not stand in their true shares. Many entries were measured with a wide error.
Tests used:
[1] = test system: MILI (PIWIL2) piRISC loaded with piRNA #1 (26 nt); assay: pre-steady-state target cleavage rate (min^-1); higher = faster piRNA-guided slicing of the target; conditions: guide: piRNA #1 5'p-UGAGGUAGUAGGUUGUAUAGUAUCCA; auxiliary factor: 500 nM mouse GTSF1
Procedure, shortened: (§1)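 For Cleave-'n-Seq, a transcribed, DNA-blocked target RNA library […] met 1 nM active affinity-purified piRISC with one synthetic guide at 33 °C for 0–8 or 0–960 min in HEPES–potassium acetate buffer, with or without 500 nM GTSF1 partner protein. Uncleaved targets were sequenced and normalised to depth and weakly complementary targets, with three trials pooled and k3 capped at 0.0001 min^-1. A burst-and-steady-state fit supplied the pre-steady-state cleavage rate.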

[2] = test system: MIWI (PIWIL1) piRISC loaded with piRNA #1 (30 nt); assay: as above; conditions: guide: piRNA #1 5'p-UGAGGUAGUAGGUUGUAUAGUAUCCAGAGG; auxiliary factor: 500 nM mouse GTSF1
Procedure, shortened: as §1

[3] = test system: EfPiwi piRISC loaded with piRNA #1 (26 nt); assay: pre-steady-state target cleavage rate (min^-1); guide: piRNA #1 5'p-UGAGGUAGUAGGUUGUAUAGUAUCCA; MIWI and MILI are mouse PIWI proteins and EfPiwi is from a freshwater sponge; tags in brackets are library labels; higher = faster piRNA-guided slicing of the target; conditions: auxiliary factor: 500 nM Ephydatia muelleri Gtsf1
Procedure, shortened: as §1

GGAGACCUAUGAUAUGUUGCUACUAGCCUCA
pre-steady-state target cleavage rate [1]: 0.000547 ± 0.016
pre-steady-state target cleavage rate [2]: 0.000557 ± 0.012
pre-steady-state target cleavage rate [3]: 0.00107 ± 0.0046

GGAGACGAUACUAUACAACCGUACUACCUCA
pre-steady-state target cleavage rate [1]: 0.0039 ± 0.0039
pre-steady-state target cleavage rate [2]: 0.000519 ± 0.015
pre-steady-state target cleavage rate [3]: 0.00284 ± 0.0035

GGAGACCUAUGUAUACAACCGACUACCUCA
pre-steady-state target cleavage rate [1]: 0.00448 ± 0.0021
pre-steady-state target cleavage rate [2]: 0.00117 ± 0.0032
pre-steady-state target cleavage rate [3]: 0.000857 ± 0.0069

GGAGACCUAUGAUUACAACCUUGUACCUCA
pre-steady-state target cleavage rate [1]: 0.00139 ± 0.007
pre-steady-state target cleavage rate [2]: 0.000336 ± 0.011
pre-steady-state target cleavage rate [3]: 0.000314 ± 0.0074

GGAGACCUAUGAAUACAACCUACAAGCUCA
pre-steady-state target cleavage rate [1]: 0.00137 ± 0.0043
pre-steady-state target cleavage rate [2]: 0.000135 ± 0.018
pre-steady-state target cleavage rate [3]: 0.000121 ± 0.022

GGAGACCUAUGAUAUCAGCCUACUACCUCA
pre-steady-state target cleavage rate [1]: 0.000194 ± 0.012
pre-steady-state target cleavage rate [2]: 0.000216 ± 0.0091
pre-steady-state target cleavage rate [3]: 0.000838 ± 0.0061

GGAGACCUAUGAUAACUACGUACUACCUCA
pre-steady-state target cleavage rate [1]: 0.000293 ± 0.0095
pre-steady-state target cleavage rate [2]: 0.000274 ± 0.0067
pre-steady-state target cleavage rate [3]: 0.000177 ± 0.015

GGAGACCUAUGUAUACUAACCUACUACCUCA
pre-steady-state target cleavage rate [1]: 0.000831 ± 0.0067
pre-steady-state target cleavage rate [2]: 0.000159 ± 0.019
pre-steady-state target cleavage rate [3]: 0.000865 ± 0.0066

GGAGACCUAUGAUAACAACGUACUUCCUCA
pre-steady-state target cleavage rate [1]: 0.000996 ± 0.007
pre-steady-state target cleavage rate [2]: 0.000416 ± 0.012
pre-steady-state target cleavage rate [3]: 0.000698 ± 0.0088

GGAGACCUAUGAUAUGUACGUACUACCUCA
pre-steady-state target cleavage rate [1]: 0.000774 ± 0.0062
pre-steady-state target cleavage rate [2]: 0.000748 ± 0.0049
pre-steady-state target cleavage rate [3]: 0.000351 ± 0.0056

GGAGACCUAUGAUAUCAACCUAAUACCUCA
pre-steady-state target cleavage rate [1]: 0.00128 ± 0.0047
pre-steady-state target cleavage rate [2]: 0.000273 ± 0.0074
pre-steady-state target cleavage rate [3]: 0.000143 ± 0.016

GGAGACCUAUGAUAACAACCUUCUACCUGA
pre-steady-state target cleavage rate [1]: 0.000608 ± 0.0077
pre-steady-state target cleavage rate [2]: 0.000237 ± 0.0076
pre-steady-state target cleavage rate [3]: 0.00022 ± 0.0081

GGAGACCUAUGAUAUCAACCUACUACGACA
pre-steady-state target cleavage rate [1]: 0.000272 ± 0.015
pre-steady-state target cleavage rate [2]: 0.000234 ± 0.0099
pre-steady-state target cleavage rate [3]: 0.000261 ± 0.023

GGAGACCUAUGAUAUGUACCUACUACGUCA
pre-steady-state target cleavage rate [1]: 0.000266 ± 0.011
pre-steady-state target cleavage rate [2]: 0.000174 ± 0.0079
pre-steady-state target cleavage rate [3]: 0.000553 ± 0.0091

GGAGACCUAUGAUAUGUUGGUACUUCGUCA
pre-steady-state target cleavage rate [1]: 0.000255 ± 0.018
pre-steady-state target cleavage rate [2]: 0.000439 ± 0.01
pre-steady-state target cleavage rate [3]: 0.000216 ± 0.0071

GGAGACCUAUGUAUACAUCCAACUACCUCA
pre-steady-state target cleavage rate [1]: 0.00296 ± 0.0031
pre-steady-state target cleavage rate [2]: 0.000303 ± 0.0089
pre-steady-state target cleavage rate [3]: 0.000587 ± 0.0071

GGAGACCUAUGAUAUGUUGGUACAACCACA
pre-steady-state target cleavage rate [1]: 0.000417 ± 0.011
pre-steady-state target cleavage rate [2]: 0.000872 ± 0.0065
pre-steady-state target cleavage rate [3]: 0.000257 ± 0.012

GGAGACCUAUGAUAUGUUGCUCACUACCUCA
pre-steady-state target cleavage rate [1]: 0.000285 ± 0.015
pre-steady-state target cleavage rate [2]: 0.00246 ± 0.0017
pre-steady-state target cleavage rate [3]: 0.000719 ± 0.0065

Source: the supplement of paper PMC10338343
